These are yes or no findings as the source states them, for the method shown. For part of these data: In cells and extracts the contact can be indirect.

The text below walks through data of EP2420830B1.

Assay [1] has as its target T1, GGA3 (from HeLa cell lysate) (human (HeLa cells)) (UniProt Q9NZ52).
T1 sequence (looked up): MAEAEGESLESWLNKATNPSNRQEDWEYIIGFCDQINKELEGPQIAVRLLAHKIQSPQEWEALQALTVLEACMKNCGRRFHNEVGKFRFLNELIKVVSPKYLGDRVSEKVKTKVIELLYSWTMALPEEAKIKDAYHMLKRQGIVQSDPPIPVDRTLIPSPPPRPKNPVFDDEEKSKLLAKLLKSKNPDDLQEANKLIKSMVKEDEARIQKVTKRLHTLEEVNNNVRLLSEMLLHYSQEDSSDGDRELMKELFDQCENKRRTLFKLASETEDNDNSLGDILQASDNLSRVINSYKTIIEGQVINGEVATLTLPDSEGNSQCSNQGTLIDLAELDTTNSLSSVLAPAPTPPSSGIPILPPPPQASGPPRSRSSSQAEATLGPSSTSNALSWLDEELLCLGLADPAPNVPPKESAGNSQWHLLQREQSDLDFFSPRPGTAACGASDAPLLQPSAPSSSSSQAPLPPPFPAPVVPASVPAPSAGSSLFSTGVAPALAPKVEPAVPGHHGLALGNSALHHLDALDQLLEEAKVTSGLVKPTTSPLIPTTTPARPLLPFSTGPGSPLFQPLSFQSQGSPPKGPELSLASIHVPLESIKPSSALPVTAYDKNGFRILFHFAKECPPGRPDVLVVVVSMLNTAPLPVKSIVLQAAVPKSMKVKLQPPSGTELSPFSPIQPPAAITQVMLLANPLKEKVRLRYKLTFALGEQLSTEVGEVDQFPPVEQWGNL
Description: GST pull-down, immunoblot. In general terms: Immunoblotting shows a protein as a band on a membrane.

Assay [2] deals with T1, GGA3 (from HeLa cell lysate) (human (HeLa cells)). Description: GST pull-down from HeLa cell lysate, immunoblot.

With “GST fusion protein of the CIC-3 carboxy-terminal domain (CIC-3-CT, human aa 586-760)”, the binding result in assay [1] was “no binding”. Regarding “GST fusion protein of the CIC-3 amino-terminal domain (CIC-3-NT, human aa 1-67)”, in assay [2], the binding result was “no binding”. As to “GST fusion protein of the CIC-5 carboxy-terminal domain (CIC-5-CT, human aa 573-746)”, the binding entry in assay [2] is recorded as “no binding”.
